From US20210214440A1
These are yes or no findings as the source states them, for the method shown.

Molecular target: Human CD8αα fused to human Fc (human)
Assay: SPR Biacore 8K, mAb captured, single cycle kinetics

| binding | Binder |
| --- | --- |
| no binding (tested: 100 nM) | CD8B245 (antibody, human IgG1, kappa, V domains shown) VH: EFQLQQSGGGLVQPGGSLSLSCAAPGFTFTDYYMSWVRQSPGKALEWLALSRNKGNGYTTEYSASVKGRFTISRDNSQSILYLQMNVLRAEDSATYYCARTVTGTLFYYALDYWGQGTTVTVSS VL: DIQMTQSPASLSASVGETVTITCRASENIYSYLAWYQQKQGKSPQFLVYNAKTLAAGVPSRFSGSGSGTQFSLKINRLQPEDFGTYYCQHHYGTPLTFGDGTRLEIKR |
| no binding (tested: 100 nM) | CD8B310 (antibody, human IgG1, kappa, V domains shown) VH: QVQLKESGPGLVAPSQSLSITCTVSGFSLTNYAVHWVRQSPGKGLEWLGVIWTDGSTDYNAGFISRLSISKDNSKSQVFFKMNSLQADDTAIYYCARNNGYFPAFFAYWGQGTTVTVSS VL: DVLMTQTPLSLPVSLGDQASISCRSSQTIVHSNGNTYLEWYLQKPGQSPKLLMYKVSNRFSGVPDRFGGSGSGTDFTLKISRVEAEDLGVYYCFQGSHAPFTFGSGTKLEIKR |
| no binding (tested: 100 nM) | CD8B250 (antibody, human IgG1, kappa, V domains shown) VH: QVQLKESGPGLVAPSQSLSITCTVSGFSLSNYVVHWVRQSPGKGLEWLGVIWTDGSTDYNAAFISRLSISKDNSKSQVFFKMNSLQADDTAIYYCARNNGYFPAFFAYWGQGTLVTVSA VL: DIVMTQSQKFMSTSVGDRVSVTCKASQNVDTDITWYQQKPGQSPKALIYSASYRYSGVPDRFTGSGSGTDFTLTITNVQSEDLAEYFCQQYNSYPLTFGSGTKLEMKR |
| no binding (tested: 100 nM) | CD8B356 (antibody, human IgG1, kappa, V domains shown) VH: DVQLQESGPGLVKPSQSLSLTCSVTGYSITSGYYWNWIRQFPGNKLEWMGYISYDGSNNYNPSLKNRISITRDTSKNQFFLKLNSVTTEDTATYYCVRNHGDAMDYWGQGTSVTVSS VL: DIVLTQSQKFMSTTVGDRVSITCKASQNVGTAVAWYQQKPGQSPKLLIYSASYRYTGVPDRFTGSGSGTHFTLTISNMQSEDLADYFCQQYSSYLTFGSGTKLEIKR |
| no binding (tested: 100 nM) | CD8B269 (antibody, human IgG1, kappa, V domains shown) VH: DVQLQESGPGLVKPSQSLSLTCSVTGYSITSGYYWNWIRQFPGNKLEWMGYISYDGSNNYNPSLKNRISITRDTSKNQFFLKLNSVTTEDTATYYCVRNHGDAMDHWGQGTTLTVSS VL: DIVMTQSQKFMSTSVGDRVRVTCKASQNVGTDVAWYQQKPGQSPKALIYSASYRYSGVPDRFTGSGSGTDFTLTISDVQSEDLAEYFCQQYKSYPLTFGAGTKLELKR |
| no binding (tested: 100 nM) | CD8B319 (antibody, human IgG1, kappa, V domains shown) VH: QVQLKESGPELKKPGETVKISCKASGYSFTAYYMHWVKQSPEKSLEWIGEINPSAGGTTYNQKFKAKATLTVDKSSSTAFIQLKSLTSEDSAVYYCARWTNPFDYWGQGTTLTVSS VL: DIVMTQSQKFMSTTVGDRVSITCKASQNVGTAVAWYQQKPGQSPKLLIYSASYRYTGVPDRFTGSGSGTHFTLTISNIQSEDLADYFCQQYNNYLTFGSGTKLEIKR |
| no binding (tested: 100 nM) | CD8B182 (antibody, human IgG1, kappa, V domains shown) VH: EVQLQQSGAALAKPGTSVKMSCKASGYTFTSYWMNWVRQRPGQGLEWIGAVNPTNYYTEYIQKFKDKAILTADKSSSTAYMHLSGLTSEDSAVYYCARSGLYNTNHLAWFAYWGQGTTVTVSS VL: DIKMTQSPASLSASVGETVTITCRASENIHNYLAWYQQIQGKSPQLLVYNAKTLANGVPSRFSGSASGTQFSLTINSLQPEDFGSYYCQHFWTTPLTFGAGTKLELKR |
| no binding (tested: 100 nM) | CD8B248 (antibody, human IgG1, kappa, V domains shown) VH: EVQLQQSGAELARPGASVKMSCKASGYTFTTYTMHWVKQRPGQGLEWIGYINPSSGYTKYNQKFTDKATLTADKSSSTAYMQLSSLTSEDSAVYYCARLWAYWGQGTLVTVSA VL: DVVMTQTPLSLPVSLGDQASISCRSSQSLVHSSGNTYLHWYLQKPGQSPKLLIYKGSNRFSGVSDRFSGSGSGTDFTLKISRVEAEDLGVYFCSQSTHVPFTFGSGTKLEMKR |
| no binding (tested: 100 nM) | CD8B254 (antibody, human IgG1, kappa, V domains shown) VH: EVQLQQSGAELVKPGASVKMSCKTSGYTFSSYWITWVKQRPGQGLEWVGDIYPGSGSTNYNEKFKSKAALTVDTSSSTAFMQLNSLTSEDSAVYYCARESITTRITPFDHWGQGTTLTVSS VL: DVVMTQTPLSLPVSLGDQASISCRSSQSLVHSSGNTYLHWYLQKPGQSPKLLIYKGSNRFSGVSDRFSGSGSGTDFTLKISRVEAEDLGVYFCSQSTHVPFTFGSGTKLEIKR |
| no binding (tested: 100 nM) | CD8B246 (antibody, human IgG1, kappa, V domains shown) VH: QVQLKESGPGILKPSQTLSLTCSFSGFSLSTSGMNVGWIRQPSGKGLEWLAHIWWDDDKYYNPSLKSQLTISKDTSRNQVFLKITSVDTADTATYYCARRGNYGNYEFAYWGQGTTLTVSS VL: DIQMTQTTSSLSASLGDRVTISCRASQDIRNYLNWYQQKPDGTVKLLIYHTSRLHSGVPSRFSGSGSGTDYSLTISNLEQEDIATYFCQQGNTLPWTFGAGTKLELKR |
| no binding (tested: 100 nM) | CD8B304 (antibody, human IgG1, kappa, V domains shown) VH: QVTLKESGPGILKPSQTLSLTCSFSGFSLSTSGMNVGWIRQPSGKGLEWLAHIWWDDDKYYNPSLKSQLTISKDTSRNQVFLKITSVDTADTATYYCARRGNYGNYEFAYWGQGTTVTVSS VL: DIQMTQTTSSLSASLGDRVTISCRASQDIRNYLNWYQQKPDGTVKLLIYHTSRLHSGVPSRFSGSGSGTDYSLTISNLDQEDIATYFCQQGNTLPWTFGAGTKLELKR |
| no binding (tested: 100 nM) | CD8B251 (antibody, human IgG1, kappa, V domains shown) VH: QVQLKGSGPGLVQPSQSLSITCTVSGFSLTTYAVHWVRQSPGKGLEWLGVIWSGGSTDYNAAFISRLSISKDNSKSQVFFKMNSLQADDTAIYYCARHSYYHYNAMDNWGQGTSVTVSS VL: DIKMTQSQKFMSTTVGDRVSITCKASQNVGTAVAWYQQKPGQSPKLLIYSASNRYTGVPDRFTGSGSGTDFTLTISNMQSEDLADYFCQQYSSYPFTFGSGTKLEIKR |
| no binding (tested: 100 nM) | CD8B303 (antibody, human IgG1, kappa, V domains shown) VH: QVQLKESGPGLVAPSQSLSITCTVSGFSLSIYSIHWVRQPPGKGLEWLGMIWGGGSTDYNSTLNSRLSIIKDNSKSQVFLKMNSLQTDDTAMYYCARNPHHYGGSTGAMDYWGQGTTVTVSS VL: DVQMIQSPSSLSASLGGTVTITCKASQDIKKYMAWYQHKPGKGPRLLIHYTSSLQPGIPSRFSGSGSGRDYYFSISNLEPEDIATYFCLQYDNLFTFGSGTKLELKR |
| no binding (tested: 100 nM) | CD8B312 (antibody, human IgG1, kappa, V domains shown) VH: QVQLQQPGADLVKPGASVKLSCKASGYTFTSFWMHWVKQRPGQGLEWIGNVDPSDSQTHYNQKFKDKATLTVDKSSNTAYMQLSSLTSEDSAVYYCARSTYYRYDGPFTYWGQGTTVTVSS VL: DIVLTQSPATLSVTPGDSVSLSCRASQSINNNLHWYQQKSHESPRLLIKYTSQSISGIPSRFSGSGSGPDFTLSINSVETEDFGMYFCQQSNSWPLTFGGGTKLEIKR |
| no binding (tested: 100 nM) | CD8B186 (antibody, human IgG1, kappa, V domains shown) VH: QVQLQQSGAELAKPGASVKMSCKASGYIFTSYWMHWVKQRPGQGLEWIGNINPSSGYAVYNQKFKDKATLTADQSSSTAYIQLNSLTSEDSAVYYCARRVFYGDSWFAYWGQGTSVTVSS VL: DVQMIQSPASLSASVGETVTITCRASGNIHNYLAWYQQKQGKSPQLLVYNAKTLADGVPSRFSGSGSGTQYSLKINSLQPEDFGSYYCQHFWSTTWTFGGGTKLEIKR |
| no binding (tested: 100 nM) | CD8B192 (antibody, human IgG1, kappa, V domains shown) VH: QVQLQQSGPVLVKPGASVKMSCKASGYTFTDYYMNWVMQSHGKSLEWIGVINPYNGGTTYNQRFTGKATLTVDKSSSTAYMELNSLTSEDSAVYYCARNYGAMDSWGQGTSVTVSS VL: DIQMTQSPASLSASVGETVTITCRASGNIHNYLAWYQQKQGKSPQLLVSNAKTLADGVPSRFGGSGSGTQYSLKINSLQPEDFGSYYCQHFWITPPTFGAGTRLEIKR |
| no binding (tested: 100 nM) | CD8B273 (antibody, human IgG1, kappa, V domains shown) VH: QVQLQQSGAELVKPGASVKLSCKASGYTFTEYTIHWVKQRSGQGLEWIGWFYPGTGSIKYNEKFKDKATLTADKSSHTVYMELSKLTSEDSAVYFCARHEDNHYYDGNSWFAYWGQGTLVTVSA VL: DIQMTQSPASLSASVGETVTITCRASGNIHNYLAWFQQKQGKSPQLLVYNAKTLADGVPSRFSGSGSGTQYSLKINSLQAEDFGSYYCQHFWSTPYTFGSGTKLEIKR |
| no binding (tested: 100 nM) | CD8B271 (antibody, human IgG1, kappa, V domains shown) VH: DVQLQESGPGLVAPSQSLSITCTVSGFSLSIYSIHWVRQPPGKGLEWLGMIWGGGDTDYNSALKSRLSISKDNSESQVFLKMNSLQTDDTAMYYCARNPHYYGGTYEYFDVWGTGTTVTVSS VL: DIQMTQTTSSLSASLGDRVTISCSASQGISNYLNWYQQKPDGTVKLLIYDTSILYSGVPSRFSGSGSGTDYSLTISNLEPEDVATYYCQQYSNLPYTFGSGTKLEIKR |
| no binding (tested: 100 nM) | CD8B311 (antibody, human IgG1, kappa, V domains shown) VH: QVQLKESGPELVKPGASVKLSCKASGYTFTSYWMHWVKQRPGQGLEWIGMIHPNSGSTNYNEKFKSKATLTVDKSSSTAYMQLSSLTSEDSAVYYCARCGYDGAWFAYWGQGTSVTVSS VL: DIQMTQTTSSLSASLGDRVTISCSASQGISNCLNWYQQKPDGTVKLLIHYTSSLHSGVPSRFSGGGSGTHYSLTISNLEPEDIATYYCQQYSKVPYTFGSGTKLEIKR |
| no binding (tested: 100 nM) | CD8B350 (antibody, human IgG1, kappa, V domains shown) VH: EVQLQQSGAELAKPGTSVKMSCKASGYTFAAYWINWLKQRPGQGLEWIGSINPSNGYTEYSQKFKDKAILTADKSSSTAYMQLSSLTSEDSAVYYCSRSGLYYTNHLAWCPYWGQGTTVTVSS VL: DIVMTQSPASLSASVGETVTITCRASGNIHNYLAWYQQKQGKSPQVLVYNAETLADSVPSRFSGSGSGTQFSLKINSLQPEDFGNYYCQHFWNSPLTFGGGTKLEIKR |
| no binding (tested: 100 nM) | CD8B268 (antibody, human IgG1, kappa, V domains shown) VH: QVQLQQSGAELVKPGASVKLSCKASGYTFTVYTIHWVKQRSGQGLEWIGWFYPGSGNIKYNEKFKDKATLTADKSSHTVYMELSRLTSEDSAVYFCARHEDNHYYDGNSWFAYWGQGTLVTVSA VL: DIQMTQSPASLSASVGQTVTITCRASGNIHNYLAWFQQKQGKSPQLLVYNAKTLADGVPSRFSGSGSGTQYSLKINSLQTEDFGNYYCQHFWNTPYTFGGGTKLEIKR |
